These are yes or no findings as the source states them, for the method shown. Binding seen in cells or lysates may run through a third protein. These calls come from enrichment with a bait or labelling near it, and not all partners need be listed.
Biological target: full-length Diaph3-M1041A-Flag (mouse) (UniProt Q9Z207)
Assay: affinity purification with mass spectrometry; Diaph3-M1041A-Flag overexpressed in HEK293T, 48 h, MG132 for 6 h; immunoprecipitation with Flag antibodies, SDS-PAGE, in-gel trypsin digest, LC-MS/MS; search against UniProt Homo sapiens

Protein sequences, listed by entry. Tags and fused reporters are not part of them. Lines headed by an entry give the natural chain unless they say otherwise; changes in a name come on top.
UniProt Q9Z207: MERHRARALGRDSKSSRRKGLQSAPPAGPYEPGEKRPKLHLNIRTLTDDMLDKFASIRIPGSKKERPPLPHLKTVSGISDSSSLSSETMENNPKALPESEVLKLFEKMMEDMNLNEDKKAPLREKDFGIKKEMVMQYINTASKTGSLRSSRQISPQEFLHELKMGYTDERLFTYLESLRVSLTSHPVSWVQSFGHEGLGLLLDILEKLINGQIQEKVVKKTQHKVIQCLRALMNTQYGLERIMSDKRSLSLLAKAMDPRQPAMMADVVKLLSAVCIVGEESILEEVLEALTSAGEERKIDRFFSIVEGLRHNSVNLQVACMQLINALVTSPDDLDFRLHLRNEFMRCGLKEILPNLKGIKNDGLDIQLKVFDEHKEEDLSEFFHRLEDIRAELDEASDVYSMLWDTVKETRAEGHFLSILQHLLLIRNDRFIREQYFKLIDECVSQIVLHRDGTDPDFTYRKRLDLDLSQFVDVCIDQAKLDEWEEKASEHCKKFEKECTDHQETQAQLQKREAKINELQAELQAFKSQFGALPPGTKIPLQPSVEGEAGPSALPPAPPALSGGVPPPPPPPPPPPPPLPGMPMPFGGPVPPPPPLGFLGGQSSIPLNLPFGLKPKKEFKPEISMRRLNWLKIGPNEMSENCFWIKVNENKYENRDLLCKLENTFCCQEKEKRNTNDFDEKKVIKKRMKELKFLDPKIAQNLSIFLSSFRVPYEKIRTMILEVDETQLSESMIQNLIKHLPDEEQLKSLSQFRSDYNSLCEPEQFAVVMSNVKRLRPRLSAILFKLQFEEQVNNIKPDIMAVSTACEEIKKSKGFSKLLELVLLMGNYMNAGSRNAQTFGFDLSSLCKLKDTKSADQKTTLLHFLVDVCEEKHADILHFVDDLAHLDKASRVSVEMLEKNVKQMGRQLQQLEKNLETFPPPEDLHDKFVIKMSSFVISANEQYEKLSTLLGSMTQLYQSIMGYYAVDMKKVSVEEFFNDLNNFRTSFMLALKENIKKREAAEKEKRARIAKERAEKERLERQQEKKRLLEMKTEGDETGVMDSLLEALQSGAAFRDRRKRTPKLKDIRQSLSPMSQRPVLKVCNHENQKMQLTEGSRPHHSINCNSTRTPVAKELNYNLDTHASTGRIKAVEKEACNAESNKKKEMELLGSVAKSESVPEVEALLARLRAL
UniProt Q9UJX5: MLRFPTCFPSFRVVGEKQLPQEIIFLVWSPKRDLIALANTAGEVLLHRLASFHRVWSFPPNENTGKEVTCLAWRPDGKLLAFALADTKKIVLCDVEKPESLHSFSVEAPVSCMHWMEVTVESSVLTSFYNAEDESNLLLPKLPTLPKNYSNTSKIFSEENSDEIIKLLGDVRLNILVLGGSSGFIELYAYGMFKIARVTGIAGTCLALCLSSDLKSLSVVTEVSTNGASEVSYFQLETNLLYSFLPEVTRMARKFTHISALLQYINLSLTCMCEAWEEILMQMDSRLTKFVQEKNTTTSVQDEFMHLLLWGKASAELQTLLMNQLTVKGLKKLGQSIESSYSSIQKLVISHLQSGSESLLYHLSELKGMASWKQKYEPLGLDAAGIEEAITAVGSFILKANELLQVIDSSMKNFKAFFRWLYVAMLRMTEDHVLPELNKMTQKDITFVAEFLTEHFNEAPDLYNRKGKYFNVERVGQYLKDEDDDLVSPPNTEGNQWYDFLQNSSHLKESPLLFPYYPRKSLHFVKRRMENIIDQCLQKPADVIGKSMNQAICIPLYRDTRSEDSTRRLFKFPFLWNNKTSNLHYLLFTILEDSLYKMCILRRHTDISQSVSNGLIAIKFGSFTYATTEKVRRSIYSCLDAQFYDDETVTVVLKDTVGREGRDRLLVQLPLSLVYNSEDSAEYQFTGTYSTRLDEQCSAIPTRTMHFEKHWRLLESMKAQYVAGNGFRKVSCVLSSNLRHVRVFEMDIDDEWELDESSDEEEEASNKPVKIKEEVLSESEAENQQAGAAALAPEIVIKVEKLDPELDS
UniProt P63208: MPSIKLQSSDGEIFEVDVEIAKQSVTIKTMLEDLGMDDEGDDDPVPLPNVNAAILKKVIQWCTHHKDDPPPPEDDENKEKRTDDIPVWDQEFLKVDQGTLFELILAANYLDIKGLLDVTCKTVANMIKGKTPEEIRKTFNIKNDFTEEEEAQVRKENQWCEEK
UniProt Q9UNE7: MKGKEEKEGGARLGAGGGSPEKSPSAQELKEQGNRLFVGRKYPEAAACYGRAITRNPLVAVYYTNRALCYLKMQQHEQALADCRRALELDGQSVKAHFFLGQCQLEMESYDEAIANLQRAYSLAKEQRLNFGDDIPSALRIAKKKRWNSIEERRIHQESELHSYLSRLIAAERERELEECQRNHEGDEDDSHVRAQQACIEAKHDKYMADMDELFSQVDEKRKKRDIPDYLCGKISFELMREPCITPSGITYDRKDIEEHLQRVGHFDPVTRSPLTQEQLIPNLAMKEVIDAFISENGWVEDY

Substance: Anapc4 (endogenous, found by mass spectrometry) (from UniProt Q9UJX5 1-808)
- binding: binds

Substance: Skp1 (endogenous, found by mass spectrometry) (from UniProt P63208 1-163)
- binding: binds

Substance: Stub1 (endogenous, found by mass spectrometry) (from UniProt Q9UNE7 1-303) (enzyme)
- binding: binds
